This note sets out measurements from the supplement of paper PMC12067093, “Discovery and optimisation of a covalent ligand for TRIM25 and its application to targeted protein ubiquitination” (Chemical Science, 2025).

Chains of the proteins cited; added tags and fusions are not shown. Lines headed by an entry give the natural chain unless they say otherwise; changes in a name come on top.
UniProt Q9UQ80: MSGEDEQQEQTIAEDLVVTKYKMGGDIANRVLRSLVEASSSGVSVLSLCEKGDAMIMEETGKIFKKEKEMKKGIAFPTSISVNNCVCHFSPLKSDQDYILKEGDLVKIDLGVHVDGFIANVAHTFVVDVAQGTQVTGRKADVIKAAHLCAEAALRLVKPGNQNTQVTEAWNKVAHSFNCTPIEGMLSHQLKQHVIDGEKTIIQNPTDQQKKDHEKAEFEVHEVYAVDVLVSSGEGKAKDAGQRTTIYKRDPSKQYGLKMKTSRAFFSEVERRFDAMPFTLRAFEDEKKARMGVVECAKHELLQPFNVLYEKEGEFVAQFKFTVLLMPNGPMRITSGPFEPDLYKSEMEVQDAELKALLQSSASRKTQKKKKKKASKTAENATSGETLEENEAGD
UniProt Q96FW1, whole entry, looked up: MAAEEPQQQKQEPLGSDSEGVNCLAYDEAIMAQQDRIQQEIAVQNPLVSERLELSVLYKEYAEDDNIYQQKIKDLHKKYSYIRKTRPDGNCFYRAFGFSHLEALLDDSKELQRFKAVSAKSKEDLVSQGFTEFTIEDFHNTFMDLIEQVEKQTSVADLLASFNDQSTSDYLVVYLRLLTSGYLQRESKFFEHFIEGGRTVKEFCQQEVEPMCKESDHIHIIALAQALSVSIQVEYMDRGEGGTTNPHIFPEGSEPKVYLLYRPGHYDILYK
UniProt O95453: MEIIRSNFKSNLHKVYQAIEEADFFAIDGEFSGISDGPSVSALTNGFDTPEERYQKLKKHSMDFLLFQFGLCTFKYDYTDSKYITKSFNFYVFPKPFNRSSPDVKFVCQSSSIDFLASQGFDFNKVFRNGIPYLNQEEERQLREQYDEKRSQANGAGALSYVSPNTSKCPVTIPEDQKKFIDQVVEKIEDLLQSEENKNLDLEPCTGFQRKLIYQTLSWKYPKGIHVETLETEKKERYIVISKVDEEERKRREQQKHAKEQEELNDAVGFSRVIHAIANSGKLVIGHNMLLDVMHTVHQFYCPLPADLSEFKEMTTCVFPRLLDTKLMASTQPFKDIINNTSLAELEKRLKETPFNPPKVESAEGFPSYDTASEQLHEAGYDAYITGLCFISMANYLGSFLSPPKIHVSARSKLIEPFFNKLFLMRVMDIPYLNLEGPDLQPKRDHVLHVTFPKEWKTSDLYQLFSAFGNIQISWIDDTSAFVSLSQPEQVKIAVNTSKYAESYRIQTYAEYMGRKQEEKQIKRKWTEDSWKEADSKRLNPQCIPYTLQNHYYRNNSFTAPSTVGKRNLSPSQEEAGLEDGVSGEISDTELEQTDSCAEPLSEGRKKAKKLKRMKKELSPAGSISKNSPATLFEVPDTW
UniProt P09874, whole entry, looked up: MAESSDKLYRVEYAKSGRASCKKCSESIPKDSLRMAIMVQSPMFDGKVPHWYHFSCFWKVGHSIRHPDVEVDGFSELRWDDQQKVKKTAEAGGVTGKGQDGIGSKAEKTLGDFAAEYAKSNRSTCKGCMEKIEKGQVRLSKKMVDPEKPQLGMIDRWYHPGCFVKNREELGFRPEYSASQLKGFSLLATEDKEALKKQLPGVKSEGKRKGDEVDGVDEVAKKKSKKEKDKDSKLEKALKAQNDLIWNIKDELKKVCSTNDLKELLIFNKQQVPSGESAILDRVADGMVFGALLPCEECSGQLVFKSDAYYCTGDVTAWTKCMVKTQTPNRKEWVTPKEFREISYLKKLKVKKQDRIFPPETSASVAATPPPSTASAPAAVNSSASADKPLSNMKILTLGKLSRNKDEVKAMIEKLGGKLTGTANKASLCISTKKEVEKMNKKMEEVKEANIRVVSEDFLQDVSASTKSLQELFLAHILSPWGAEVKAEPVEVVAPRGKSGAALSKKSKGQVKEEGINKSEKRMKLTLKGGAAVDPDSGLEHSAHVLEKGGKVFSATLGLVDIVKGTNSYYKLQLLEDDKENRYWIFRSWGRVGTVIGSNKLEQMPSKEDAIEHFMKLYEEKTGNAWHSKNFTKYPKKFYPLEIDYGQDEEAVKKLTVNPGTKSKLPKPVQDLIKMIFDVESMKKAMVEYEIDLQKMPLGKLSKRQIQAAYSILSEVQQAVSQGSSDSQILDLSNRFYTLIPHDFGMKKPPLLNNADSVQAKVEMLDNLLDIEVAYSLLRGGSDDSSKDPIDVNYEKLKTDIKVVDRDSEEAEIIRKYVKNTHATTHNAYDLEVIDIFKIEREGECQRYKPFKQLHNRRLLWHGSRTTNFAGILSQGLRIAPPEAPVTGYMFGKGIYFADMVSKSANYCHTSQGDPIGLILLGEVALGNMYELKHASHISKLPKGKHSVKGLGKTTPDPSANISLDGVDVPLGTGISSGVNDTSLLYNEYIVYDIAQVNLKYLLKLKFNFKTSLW
UniProt P07237: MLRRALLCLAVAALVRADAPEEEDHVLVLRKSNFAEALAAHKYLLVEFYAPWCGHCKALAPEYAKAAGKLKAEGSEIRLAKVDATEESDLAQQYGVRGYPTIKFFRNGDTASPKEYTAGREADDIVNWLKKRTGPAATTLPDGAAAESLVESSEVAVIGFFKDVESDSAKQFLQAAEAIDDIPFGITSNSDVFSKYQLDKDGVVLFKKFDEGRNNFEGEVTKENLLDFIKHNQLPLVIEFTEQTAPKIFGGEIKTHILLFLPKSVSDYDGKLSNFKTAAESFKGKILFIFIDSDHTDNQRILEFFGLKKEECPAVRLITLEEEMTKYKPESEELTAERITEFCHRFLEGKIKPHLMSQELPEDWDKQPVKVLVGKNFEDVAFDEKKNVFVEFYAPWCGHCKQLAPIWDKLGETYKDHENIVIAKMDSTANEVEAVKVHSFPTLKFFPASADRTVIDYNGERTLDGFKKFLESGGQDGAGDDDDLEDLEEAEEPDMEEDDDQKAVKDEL
UniProt P22234: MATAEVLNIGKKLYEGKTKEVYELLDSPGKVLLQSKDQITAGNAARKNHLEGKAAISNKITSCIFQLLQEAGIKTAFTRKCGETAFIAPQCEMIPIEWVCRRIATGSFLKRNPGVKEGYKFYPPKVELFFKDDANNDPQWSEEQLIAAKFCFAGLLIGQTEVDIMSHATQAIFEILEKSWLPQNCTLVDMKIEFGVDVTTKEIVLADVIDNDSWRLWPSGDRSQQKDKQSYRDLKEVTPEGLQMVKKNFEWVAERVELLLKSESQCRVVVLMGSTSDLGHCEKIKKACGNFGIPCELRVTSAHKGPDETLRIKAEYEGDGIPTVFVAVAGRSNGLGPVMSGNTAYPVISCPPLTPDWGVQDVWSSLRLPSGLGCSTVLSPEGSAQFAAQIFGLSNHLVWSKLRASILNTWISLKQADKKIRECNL
UniProt O14841: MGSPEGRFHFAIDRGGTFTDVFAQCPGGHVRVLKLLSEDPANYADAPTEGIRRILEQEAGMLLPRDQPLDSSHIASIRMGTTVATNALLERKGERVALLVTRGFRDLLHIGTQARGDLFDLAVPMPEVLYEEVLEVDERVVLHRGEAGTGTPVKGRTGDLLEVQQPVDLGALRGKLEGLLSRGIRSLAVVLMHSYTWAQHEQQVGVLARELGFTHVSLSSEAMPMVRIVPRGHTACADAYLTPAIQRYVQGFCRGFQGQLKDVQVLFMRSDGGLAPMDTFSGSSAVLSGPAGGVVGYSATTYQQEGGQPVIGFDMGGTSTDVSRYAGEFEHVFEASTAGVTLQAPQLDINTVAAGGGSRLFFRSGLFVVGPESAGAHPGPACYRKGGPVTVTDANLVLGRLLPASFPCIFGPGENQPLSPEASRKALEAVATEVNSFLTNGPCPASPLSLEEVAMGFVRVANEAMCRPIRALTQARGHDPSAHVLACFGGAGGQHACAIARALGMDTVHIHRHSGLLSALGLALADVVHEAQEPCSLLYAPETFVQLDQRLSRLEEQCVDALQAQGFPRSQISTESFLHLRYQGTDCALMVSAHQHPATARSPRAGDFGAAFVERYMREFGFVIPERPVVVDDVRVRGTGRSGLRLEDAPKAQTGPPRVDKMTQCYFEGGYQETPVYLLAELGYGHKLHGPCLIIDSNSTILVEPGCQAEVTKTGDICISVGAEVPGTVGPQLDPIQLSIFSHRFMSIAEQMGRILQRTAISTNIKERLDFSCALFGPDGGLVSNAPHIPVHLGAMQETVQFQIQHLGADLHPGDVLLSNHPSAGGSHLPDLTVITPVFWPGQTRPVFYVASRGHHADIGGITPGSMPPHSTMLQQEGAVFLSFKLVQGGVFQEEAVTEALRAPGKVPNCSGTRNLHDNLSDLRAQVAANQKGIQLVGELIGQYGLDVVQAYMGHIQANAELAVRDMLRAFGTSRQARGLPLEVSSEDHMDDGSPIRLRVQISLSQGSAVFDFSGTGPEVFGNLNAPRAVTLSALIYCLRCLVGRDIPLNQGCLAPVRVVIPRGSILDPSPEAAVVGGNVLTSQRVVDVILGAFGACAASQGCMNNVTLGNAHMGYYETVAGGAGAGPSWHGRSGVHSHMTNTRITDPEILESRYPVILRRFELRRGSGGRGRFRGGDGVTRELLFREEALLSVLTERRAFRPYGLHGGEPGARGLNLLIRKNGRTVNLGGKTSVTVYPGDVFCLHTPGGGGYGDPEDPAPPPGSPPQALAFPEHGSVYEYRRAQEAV
UniProt O60313: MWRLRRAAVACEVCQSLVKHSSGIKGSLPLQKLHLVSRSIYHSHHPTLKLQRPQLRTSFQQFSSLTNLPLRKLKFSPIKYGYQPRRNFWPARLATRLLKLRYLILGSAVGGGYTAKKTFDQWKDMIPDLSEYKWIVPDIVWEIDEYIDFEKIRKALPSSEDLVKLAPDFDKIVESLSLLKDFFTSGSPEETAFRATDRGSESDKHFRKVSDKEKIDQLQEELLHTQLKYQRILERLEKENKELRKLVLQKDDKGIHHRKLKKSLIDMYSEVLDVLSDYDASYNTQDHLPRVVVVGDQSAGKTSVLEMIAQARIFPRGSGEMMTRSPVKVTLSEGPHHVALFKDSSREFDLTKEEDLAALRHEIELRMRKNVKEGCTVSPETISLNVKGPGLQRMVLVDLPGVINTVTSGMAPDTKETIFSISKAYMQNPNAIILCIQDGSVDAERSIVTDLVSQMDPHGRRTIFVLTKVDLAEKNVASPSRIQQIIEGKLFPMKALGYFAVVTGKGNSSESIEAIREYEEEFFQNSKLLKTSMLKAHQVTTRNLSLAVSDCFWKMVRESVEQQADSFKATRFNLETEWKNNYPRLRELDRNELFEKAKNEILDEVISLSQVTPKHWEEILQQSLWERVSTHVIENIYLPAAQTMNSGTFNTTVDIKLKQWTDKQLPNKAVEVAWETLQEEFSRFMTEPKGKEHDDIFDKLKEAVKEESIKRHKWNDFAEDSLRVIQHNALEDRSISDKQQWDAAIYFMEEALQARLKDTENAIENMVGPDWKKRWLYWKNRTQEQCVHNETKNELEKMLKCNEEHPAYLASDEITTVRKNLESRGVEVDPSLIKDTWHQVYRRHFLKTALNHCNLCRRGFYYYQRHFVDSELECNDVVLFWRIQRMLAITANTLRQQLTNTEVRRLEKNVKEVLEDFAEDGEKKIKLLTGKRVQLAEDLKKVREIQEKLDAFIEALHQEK
UniProt Q9BZF1: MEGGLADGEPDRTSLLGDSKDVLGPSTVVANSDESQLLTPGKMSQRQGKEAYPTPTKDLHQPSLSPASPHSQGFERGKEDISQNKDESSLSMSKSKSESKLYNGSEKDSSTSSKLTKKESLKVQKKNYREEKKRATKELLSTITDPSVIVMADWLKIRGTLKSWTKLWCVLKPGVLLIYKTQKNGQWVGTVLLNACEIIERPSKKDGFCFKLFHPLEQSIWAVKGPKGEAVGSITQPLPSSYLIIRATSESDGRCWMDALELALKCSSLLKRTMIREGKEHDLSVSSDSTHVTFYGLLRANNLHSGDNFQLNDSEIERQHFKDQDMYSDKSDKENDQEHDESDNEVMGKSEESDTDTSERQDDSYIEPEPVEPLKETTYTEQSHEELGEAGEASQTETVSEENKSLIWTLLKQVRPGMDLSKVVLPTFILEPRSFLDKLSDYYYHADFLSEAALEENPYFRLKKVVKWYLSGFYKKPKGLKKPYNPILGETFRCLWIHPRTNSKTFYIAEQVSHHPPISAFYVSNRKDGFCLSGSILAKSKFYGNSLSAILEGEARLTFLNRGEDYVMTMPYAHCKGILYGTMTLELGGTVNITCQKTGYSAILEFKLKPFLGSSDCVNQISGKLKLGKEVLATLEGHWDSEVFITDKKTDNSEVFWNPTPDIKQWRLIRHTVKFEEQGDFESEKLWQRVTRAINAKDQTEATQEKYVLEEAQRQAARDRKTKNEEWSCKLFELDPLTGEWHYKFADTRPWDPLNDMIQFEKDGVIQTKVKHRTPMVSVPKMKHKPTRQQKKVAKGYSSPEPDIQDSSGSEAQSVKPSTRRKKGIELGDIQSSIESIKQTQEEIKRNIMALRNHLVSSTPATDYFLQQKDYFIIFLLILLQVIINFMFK

This is one part of the list.

Compound in the experiment: Cc1cc(ccc1-c1ccccc1)C(=O)N1CCCN(CC1)C(=O)CCl [compound 10]
The experiment in a line: probe-labelled cysteine peptide fold change vs DMSO (competition) (log2 fold change); higher = less target engagement (more negative = stronger competition). To be noted: THP-1, incubation time: 4 h.
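Also: competitive profiling in live THP-1 cells: cysteine peptides tagged with an iodoacetamide desthiobiotin (IA-DTB) probe, intensity after compound treatment relative to DMSO-treated cells.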

For “OSBPL1A_Q9BXW6_171+182_TTELTALLNRPNPPDVNCSDQLGNTPLHCAAYR (UniProt Q9BXW6)”, the “probe-labelled cysteine peptide fold change” value is, setting by setting: (10 µM) -0.00673; (50 µM) -0.142.
Turning to “PA2G4_Q9UQ80_179_VAHSFNCTPIEGMLSHQLK (UniProt Q9UQ80)”, the “probe-labelled cysteine peptide fold change” value was -0.0769 (10 µM) and -0.138 (50 µM).
As for “PACSIN1_Q9BY11_424_LGEEDEQGWCR (UniProt Q9BY11)”, the “probe-labelled cysteine peptide fold change” value was 0.174 (10 µM) and 0.0379 (50 µM).
In the same order, the values of “PAFAH1B2_P68402_188_LANVQLLDTDGGFVHSDGAISCHDMFDFLHLTGGGYAK (UniProt P68402)” are -0.027 and -0.363.
On to “P2RX4_Q99571_270_AASLCLPR (UniProt Q99571)”, for which the “probe-labelled cysteine peptide fold change” value runs as follows: (10 µM) -0.169; (50 µM) -0.211.
In the same order, the values of “OSBPL1A_Q9BXW6_746_CVLNFKPCGLFGK (UniProt Q9BXW6)” are 0.0418 and -0.123.
In the case of “PACSIN2_Q9UNF0_44_LCSDLMNCLHER (UniProt Q9UNF0)”, the “probe-labelled cysteine peptide fold change” value by setting is: (10 µM) -0.0938; (50 µM) -0.115.
In the same order, the values of “OXR1_Q8N573-2_50_EPAQGDLGCGSPPHRPPAPSSPEGPDTGQK (UniProt Q8N573)” are -0.446 and -0.323.
In the same order, the values of “PA2G4_Q9UQ80_87_KGIAFPTSISVNNCVCHFSPLK (UniProt Q9UQ80)” are 0.178 and -0.349.
The corresponding values for “OSBP_P22059_517_SLCEQVSHHPPAAAHHAESK (UniProt P22059)” are -0.000272 and -0.00247.
For the target “OSBPL1A_Q9BXW6_769_LCALYGK (UniProt Q9BXW6)”, the “probe-labelled cysteine peptide fold change” value is -0.186 (10 µM) and -0.109 (50 µM).
In the same order, the values of “OTUB1_Q96FW1_91_TRPDGNCFYR (UniProt Q96FW1)” are 0.043 and -0.194.
In the same order, the values of “OXCT1_P55809_235_NFNLPMCK (UniProt P55809)” are -0.15 and -0.0876.
As to “PARN_O95453_205_NLDLEPCTGFQR (UniProt O95453)”, the “probe-labelled cysteine peptide fold change” value is, setting by setting: (10 µM) 0.118; (50 µM) 0.0943.
The corresponding values for “PARP1_P09874_295_VADGMVFGALLPCEECSGQLVFK (UniProt P09874)” are -0.0751 and 0.196.
The corresponding values for ORC3_Q9UBD5_141_DCPDMK (UniProt Q9UBD5) are 0.00493 and -0.0638.
The corresponding values for “P4HB_P07237_312_EECPAVR (UniProt P07237)” are -0.0964 and 0.161.
As to “PARP14_Q460N5_42_RSGGGECEVR (UniProt Q460N5)”, the “probe-labelled cysteine peptide fold change” value by setting is: (10 µM) -0.0775; (50 µM) 0.0168.
As to “PARP10_Q53GL7_983+1004_YDSAVDCICQPSIFVIFHDTQALPTHLITCEHVPR (UniProt Q53GL7)”, the “probe-labelled cysteine peptide fold change” value by setting is: (10 µM) 0.00978; (50 µM) -0.372.
In the same order, the values of “PAPSS2_O95340_155_IHESAGLPFFEIFVDAPLNICESR (UniProt O95340)” are -0.395 and -0.241.
In the same order, the values of “PARP14_Q460N5_739_QVWDSVCVK (UniProt Q460N5)” are -0.0625 and -0.0386.
For “PAICS_P22234_91+100_CGETAFIAPQCEMIPIEWVCR (UniProt P22234)”, the “probe-labelled cysteine peptide fold change” value is, setting by setting: (10 µM) 0.00291; (50 µM) -0.167.
In the same order, the values of “OTUB1_Q96FW1_23_QEPLGSDSEGVNCLAYDEAIMAQQDR (UniProt Q96FW1)” are -0.497 and -0.168.
For “PARP4_Q9UKK3_1099_LLVYGFIPHCTQATLCALIQEK (UniProt Q9UKK3)”, the “probe-labelled cysteine peptide fold change” value turned out to be 0.15 (10 µM) and 0.11 (50 µM).
On to “ORC3_Q9UBD5_158_LISQLMDCCVDIK (UniProt Q9UBD5)”, for which the “probe-labelled cysteine peptide fold change” value by setting is: (10 µM) -0.101; (50 µM) -0.953.
With “OSGEP_Q9NPF4_265_AMAHCGSQEALIVGGVGCNVR (UniProt Q9NPF4)”, the “probe-labelled cysteine peptide fold change” value reads like this: (10 µM) 0.0586; (50 µM) 0.134.
For “P4HB_P07237_343_ITEFCHR (UniProt P07237)”, the “probe-labelled cysteine peptide fold change” value is -0.0121 (10 µM) and -0.0675 (50 µM).
The corresponding values for “PARP4_Q9UKK3_1293_LLDLSWTESCKPTATEPLFK (UniProt Q9UKK3)” are -0.105 and -0.108.
The corresponding values for “PARP14_Q460N5_42_SGGGECEVR (UniProt Q460N5)” are -0.15 and -0.0237.
In the same order, the values of “OPLAH_O14841_25_GGTFTDVFAQCPGGHVR (UniProt O14841)” are 0.212 and 0.0599.
Turning to “OSBPL3_Q9H4L5_718_NLHDDSCYCK (UniProt Q9H4L5)”, the “probe-labelled cysteine peptide fold change” value is, setting by setting: (10 µM) 0.144; (50 µM) 0.299.
“OPA1_O60313_801_CNEEHPAYLASDEITTVRK (UniProt O60313)”: the “probe-labelled cysteine peptide fold change” value is -0.146 (10 µM) and -0.399 (50 µM).
The corresponding values for “OSBPL8_Q9BZF1_617_LKPFLGSSDCVNQISGK (UniProt Q9BZF1)” are -0.136 and -0.0865.
The corresponding values for “OPA1_O60313_874_HFVDSELECNDVVLFWR (UniProt O60313)” are 0.054 and 0.00842.
The corresponding values for “OTUD4_Q01804_903_DCGSVSTVDEFPEAR (UniProt Q01804)” are -0.343 and -0.257.
As for “PAIP1_Q9H074_358_IENVVLDANCSR (UniProt Q9H074)”, the “probe-labelled cysteine peptide fold change” value worked out at 0.137 (10 µM) and 0.0612 (50 µM).
As for “PARN_O95453_169_CPVTIPEDQK (UniProt O95453)”, the “probe-labelled cysteine peptide fold change” value is -0.211 (10 µM) and -0.153 (50 µM).
As to “PAK1IP1_Q9NWT1_288_KVPPSLLCEINTNAR (UniProt Q9NWT1)”, the “probe-labelled cysteine peptide fold change” value by setting is: (10 µM) 0.0757; (50 µM) 0.191.
“PAF1_Q8N7H5_218_MWINPCAQVIFDSDPAPK (UniProt Q8N7H5)”: the “probe-labelled cysteine peptide fold change” value is, setting by setting: (10 µM) -0.0419; (50 µM) -0.037.
In the same order, the values of “PARP1_P09874_429_ASLCISTK (UniProt P09874)” are 0.139 and -0.00144.
Regarding “P4HA1_P13674_167_SFLTAEDCFELGK (UniProt P13674)”, the “probe-labelled cysteine peptide fold change” value was determined as 0.0998 (10 µM) and 0.23 (50 µM).
As to “PALD1_Q9ULE6_312_DAHGPPPALVFSCQMGVGR (UniProt Q9ULE6)”, the “probe-labelled cysteine peptide fold change” value worked out at 0.248 (10 µM) and 0.103 (50 µM).
Turning to “OPLAH_O14841_382_SGLFVVGPESAGAHPGPACYR (UniProt O14841)”, the “probe-labelled cysteine peptide fold change” value reads like this: (10 µM) 0.0398; (50 µM) 0.035.
The corresponding values for “OSGEPL1_Q9H4B0_390_CPLGVDISK (UniProt Q9H4B0)” are -0.246 and -0.4.
The corresponding values for “PAPOLA_P51003_118_GADIDALCVAPR (UniProt P51003)” are -0.163 and 0.0543.
The corresponding values for “OSBPL2_Q9H1P3_273_CVLHFKPCGLFGK (UniProt Q9H1P3)” are 0.104 and -0.02.
As for “PAG1_Q9NWQ8_179_DSSSQENMVEDCLYETVK (UniProt Q9NWQ8)”, the “probe-labelled cysteine peptide fold change” value is, setting by setting: (10 µM) -0.312; (50 µM) -0.763.
The corresponding values for “PAFAH1B1_P43034_184_LWDFQGFECIR (UniProt P43034)” are 0.175 and -0.0423.
The corresponding values for “OSBPL8_Q9BZF1_729_NEEWSCK (UniProt Q9BZF1)” are -0.0698 and 0.188.
The corresponding values for “ORC5_O43913_96_LNHLSSSEDGCSTEITCETFNDFVR (UniProt O43913)” are 0.335 and 0.00516.
For the target “P3H1_Q32P28_591+600_KDDSHPVHVDNCILNAETLVCVK (UniProt Q32P28)”, the “probe-labelled cysteine peptide fold change” value is, setting by setting: (10 µM) -0.376; (50 µM) -0.0435.
In the same order, the values of “PARP1_P09874_295+298_VADGMVFGALLPCEECSGQLVFK (UniProt P09874)” are -0.0492 and -0.144.
For “PAICS_P22234_281_VVVLMGSTSDLGHCEK (UniProt P22234)”, the “probe-labelled cysteine peptide fold change” value by setting is: (10 µM) -0.00564; (50 µM) -0.126.
On to “PAICS_P22234_100_KCGETAFIAPQCEMIPIEWVCR (UniProt P22234)”, for which the “probe-labelled cysteine peptide fold change” value was 0.182 (10 µM) and -0.192 (50 µM).
With “PARP10_Q53GL7_514_SLLGSISCHVLCLEHPGSAR (UniProt Q53GL7)”, the “probe-labelled cysteine peptide fold change” value runs as follows: (10 µM) 0.123; (50 µM) -0.198.
In the same order, the values of “PARP10_Q53GL7_768_GDCTILR (UniProt Q53GL7)” are -0.181 and -0.859.
As for “PA2G4_Q9UQ80_85+87_GIAFPTSISVNNCVCHFSPLK (UniProt Q9UQ80)”, the “probe-labelled cysteine peptide fold change” value (10 µM) came to 0.191 and the “probe-labelled cysteine peptide fold change” value (50 µM) is -0.639.
The corresponding values for “OPLAH_O14841_1053_DIPLNQGCLAPVR (UniProt O14841)” are -0.0456 and 0.0979.
For “PABPC1_P11940_128_ALYDTFSAFGNILSCK (UniProt P11940)”, the “probe-labelled cysteine peptide fold change” value by setting is: (10 µM) 0.0813; (50 µM) -0.0937.
In the same order, the values of “OSBPL1A_Q9BXW6_56_SNLGWTPLHLACYFGHR (UniProt Q9BXW6)” are 0.0173 and -0.0095.
The corresponding values for “OR4D11_Q8NGI4_72_LHTPMYFLLRNLAILDICFSSTTAPKVLLDLLSK (UniProt Q8NGI4)” are -0.0338 and -0.346.
The corresponding values for “OPTN_Q96CV9_239_NYFEHEELTVSQLLLCLR (UniProt Q96CV9)” are -0.0877 and -0.674.
For the target “PARP1_P09874_429_ASLCISTKK (UniProt P09874)”, the “probe-labelled cysteine peptide fold change” value is, setting by setting: (10 µM) -0.0318; (50 µM) -0.642.
As for “PAN3_Q58A45_506_SSNFGYITSCYK (UniProt Q58A45)”, the “probe-labelled cysteine peptide fold change” value was -0.146 (10 µM) and 0.0558 (50 µM).
The corresponding values for “PABPC4_Q13310-3_488_VGSECPDR (UniProt Q13310)” are -0.351 and -0.512.
The corresponding values for “PAFAH1B2_P68402_206_ICKPLHELIMQLLEETPEEK (UniProt P68402)” are -0.134 and -0.747.
